The assay is described as follows: qHTS Assay for Lipid Storage Modulators in Drosophila S3 Cells.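 For cell number change: cells counted by Cell Tracker Red CMTPX staining in the red channel.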 Particulars: BODIPY lipid droplet fluorescence, 18-24 h; for cell number change: measured here: cell count max response, cells fed with added oleic acid. The gist of the method:
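Drosophila S3 cells loaded with oleic acid (400 uM, as added) and compounds at several concentrations; lipid droplets imaged by 488-nm laser-scanning cytometry, 500–530 nm intensity and object ratio to cell channel. Percent activity normalized to 20 uM Triacsin C.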

[1] abbreviates: measured here: lipid fluorescence (Fed channel) AC50, cells fed with added oleic acid.
Where [2] appears, read: measured here: cell number channel AC50, cells fed with added oleic acid.

The list shows a part of the results. The main result of the screen is listed elsewhere. These columns were measured beside it and carry no call. Compounds called inactive in the main read-out are mostly missing here. The note in brackets gives the kind of curve behind each potency; many fits are weak.

Take `Cc1ccsc1C(=O)N1CCCC(CCC(=O)NCc2ccccc2F)C1` (stereo unspecified): the cell number change is -29.9%. Also, the AC50 under setting [1] is 18.4 µM [falling, partial curve, poor fit].

For the compound `Cc1c(NC(=O)c2cc3ccccc3oc2=O)c(=O)n(-c2ccccc2)n1C`, the half-maximal activity concentration (AC50) under setting [1] was 6.51 µM [falling, single point].

Consider `Cc1ccc(-c2csc(=Nc3cccnc3)n2CCCn2ccnc2)cc1C`, for which the cell number change came out at 33.3%. Also, the AC50 under setting [2] is 32.6 µM [rising, single point]. Also, under setting [1], the AC50 was 1.46 µM [rising, partial curve].

Take `O=C(c1cc[n+]([O-])cc1)N1CCCC(N2CCN(c3cccc(C(F)(F)F)c3)CC2)C1` (stereo unspecified): the cell number change is -32.5%.

For `Cn1c(NCCO)nc2c1c(=O)n(Cc1ccc(F)cc1)c(=O)n2C`, the cell number change stood at 12.2%. Also, under setting [1], the AC50 is 5.8 µM [rising, partial curve].

In the case of `COc1ccc(C(=O)OCC(=O)c2c[nH]c3ccccc23)cc1OC`, the cell number change worked out at 23.7%. The AC50 under setting [1] is 20.6 µM [rising, partial curve, poor fit].

Turning to `COc1ccc(-n2nc3cc(C)c(NC(=S)NC(=O)c4ccccc4C)cc3n2)cc1`, the cell number change was found to be 42.3%. For the same compound, under setting [2], the AC50 was 29.1 µM [rising, single point].

Consider `Cc1ccc(O)c(C2=NNC(O)(C(F)(F)F)C2)c1` (stereo unspecified), for which the cell number change was -57.5%. Further, the AC50 under setting [2] was 20.6 µM [falling, single point].

Consider `CCc1nnc(NC(=O)CCC(=O)N2CCN(Cc3ccc(F)cc3)CC2)s1`, for which the cell number change was -5.2%. The AC50 under setting [1] was 0.231 µM [rising, full curve, poor fit].

Turning to `CCOC(=O)CSc1nc2cc(C(=O)NCC3CCCO3)ccc2c(=O)n1Cc1ccco1` (stereo unspecified), the cell number change was -29%. For the same compound, the AC50 under setting [1] is 2.59 µM [rising, partial curve].

For `COC(=O)c1cc(-c2ccc(S(=O)(=O)N3CCCC3)cc2)c(C(F)(F)F)s1`, the cell number change stood at 19.6%. The AC50 under setting [1] was 23.1 µM [rising, single point].

Regarding `C=CCn1c(NC(=O)CC)c(C(=O)OCC)sc1=S`, the cell number change turned out to be 42.4%. Further, the AC50 under setting [2] is 11.6 µM [rising, partial curve]. The AC50 under setting [1] was 10.3 µM [rising, partial curve].

With `Oc1c(CN2CCc3ccccc3C2)cc(Cl)c2cccnc12`, the cell number change was -48.3%. Moreover, the half-maximal activity concentration (AC50) under setting [2] is 16.4 µM [falling, partial curve]. Besides, under setting [1], the concentration at half-maximal activity (AC50) is 18.4 µM [falling, partial curve].

Turning to `Cc1ccc(P(=O)(CSC(=N)N)c2ccc(C)cc2)cc1`, the cell number change was -12.1%. Moreover, under setting [2], the AC50 is 0.13 µM [falling, full curve, poor fit]. For the same compound, under setting [1], the AC50 is 6.51 µM [falling, single point].

Turning to `COc1ccc(C)cc1N/C(N)=N/c1nc(C)cc(C)n1`, the cell number change worked out at 13.8%. In addition, the AC50 under setting [1] was 29.1 µM [falling, single point].

For `COc1ccc2c(c1OC)C(=O)OC2Nc1ncccc1C` (stereo unspecified), the cell number change was -10.3%. In addition, the AC50 under setting [1] was 0.291 µM [falling, full curve, poor fit].

In the case of `CC(C)N(Cc1nc(-c2ccc(Cl)cc2)no1)C(=O)/C=C/c1ccccc1`, the cell number change was found to be 16.2%. Under setting [1], the AC50 is 18.4 µM [rising, single point].

Consider `CC1Cc2ccccc2N1C(=O)COc1nc2ccccc2nc1N1CCOCC1` (stereo unspecified), for which the cell number change is 8.13%. For the same compound, the AC50 under setting [1] is 6.51 µM [rising, single point].

For `CN1/C(=C\C(=O)C[n+]2cccc(C(N)=O)c2)C(C)(C)c2ccccc21`, the AC50 runs as follows: under setting [2], 0.146 µM [rising, full curve, poor fit]; under setting [1], 0.116 µM [rising, full curve, poor fit].

For `Cn1c(SCC(=O)NCCc2ccccc2)ncc(C(=O)Nc2ccccc2)c1=O`, the cell number change worked out at 9.11%.

`CCCn1c(=O)n(C)c(=O)c2c(SC(C)C(=O)NCC3CCCO3)nc(CC(C)C)nc21` (stereo unspecified): the cell number change amounted to 124%. Further, the concentration at half-maximal activity (AC50) under setting [2] was 14.6 µM [rising, partial curve].

As for `CN(C)c1ccc(NC(=O)COC(=O)CCC(=O)c2ccc(F)cc2)cc1`, the cell number change was -7.55%. The AC50 under setting [2] was 7.31 µM [falling, single point]. For the same compound, the AC50 under setting [1] is 23.1 µM [falling, partial curve].

`O=C(N/N=C\c1ccc([N+](=O)[O-])s1)c1cncc(Br)c1`: the cell number change came out at 16.9%. Moreover, the half-maximal activity concentration (AC50) under setting [1] is 14.6 µM [rising, single point].

Regarding `COc1ccc(C(=O)C(C)Sc2nnc(C3CC3)n2C2CC2)cc1` (stereo unspecified), the cell number change was -20%. Under setting [2], the AC50 was 0.731 µM [falling, single point].

Regarding `O=C(O)c1cc2c(cc1NC(=O)c1ccccc1C(F)(F)F)OCCCO2`, the cell number change was 20.5%.

`O=C(CC1NCCN(Cc2ccccc2)C1=O)Nc1ccc(Cl)cc1` (stereo unspecified): the cell number change is 3.57%. Further, the AC50 under setting [2] was 6.51 µM [falling, single point]. Besides, under setting [1], the AC50 is 6.51 µM [falling, single point].

On to `CCN(C(=O)CSc1nnc2nc(C)cc(C)n12)c1ccccc1`, for which the cell number change is 13.9%. In addition, the concentration at half-maximal activity (AC50) under setting [1] was 4.11 µM [rising, full curve, poor fit].

On to `O=C(O)c1ccc(NS(=O)(=O)c2ccc(C(=O)Nc3ccccc3)cc2)cc1`, for which the cell number change is 1.08%. In addition, the AC50 under setting [2] was 6.51 µM [rising, single point].

For the compound `COc1ccc(OC)c(NC(=O)CN(Cc2ccccc2)S(C)(=O)=O)c1`, the cell number change is -20.8%. Under setting [1], the AC50 is 22.4 µM [falling, partial curve, poor fit].

In the case of `CNCC[C@H](Oc1ccc(C(F)(F)F)cc1)c1ccccc1`, the AC50 under setting [1] was 0.58 µM [rising, single point].

On to `O=C(COc1ccc([N+](=O)[O-])cc1)Nc1ccc2c(c1)CCC2`, for which the cell number change came to 16.6%. For the same compound, the AC50 under setting [1] is 2.91 µM [rising, partial curve].

As for `COc1ccc(C(=O)NCCc2nnc(SCc3nc4ccccc4c(=O)[nH]3)n2C)cc1`, the cell number change came to 4.87%. Moreover, under setting [1], the AC50 was 6.51 µM [rising, single point].

As for `CN1C(=S)NC(C)(C)CC1(C)c1ccc(O)cc1O` (stereo unspecified), the cell number change was -7.15%. Also, under setting [1], the AC50 was 2.59 µM [falling, partial curve].

Take `COc1cc(OC)cc(C(=O)c2c(C)c(C#N)c3ccccn23)c1`: the cell number change was -33.3%.

Regarding `CCOc1ccc(C(C)=O)cc1CSc1nnnn1-c1ccc(O)cc1`, the cell number change was -7.39%.

As for `CC(=O)C1=C(O)C(=O)N(Cc2cccnc2)C1c1ccc(Cl)cc1Cl` (stereo unspecified), the cell number change came to 6.18%. Besides, the AC50 under setting [1] is 29.1 µM [rising, single point].

For `COc1ccc(-c2nnc(NC(=O)Cc3ccccc3)s2)c(OC)c1`, the cell number change was 14%. In addition, the AC50 under setting [2] was 0.0731 µM [falling, full curve, poor fit]. The AC50 under setting [1] is 0.082 µM [falling, full curve, poor fit].

As for `CN(c1ccc(C(=O)Nc2ccccn2)cc1)S(=O)(=O)c1ccccc1`, the cell number change was -25.2%. Further, the half-maximal activity concentration (AC50) under setting [2] is 5.8 µM [falling, single point]. In addition, the AC50 under setting [1] was 0.291 µM [falling, full curve, poor fit].

With `CCCn1nc(NS(=O)(=O)c2cccc3nonc23)c2cc3cccc(C)c3nc21`, the cell number change is -5.31%. The AC50 under setting [1] is 29.1 µM [falling, single point].

`Cc1noc(C)c1S(=O)(=O)N(CC(=O)NC1CCC(C)CC1)c1ccc(C(C)C)cc1` (stereo unspecified): the cell number change is -11.1%. Further, the AC50 under setting [1] is 29.1 µM [falling, single point].

Take `Cc1c(NC(=O)c2cc(-c3ccc(Cl)cc3)on2)c(=O)n(-c2ccccc2)n1C`: the cell number change is 7.66%. In addition, under setting [1], the concentration at half-maximal activity (AC50) was 7.31 µM [rising, partial curve].

On to `CCOC(=O)C1=C(O)C(=O)N(Cc2ccccc2)CC1`, for which the cell number change is -12.7%. Under setting [1], the AC50 was 0.206 µM [falling, full curve].

For `Cc1nn(-c2ccccn2)c2c1C(c1ccccc1Cl)C1=C(N2)c2ccccc2C1=O` (stereo unspecified), the AC50 is 0.731 µM [rising, full curve] under setting [2] and 1.3 µM [rising, partial curve] under setting [1].

Turning to `COc1ccc(-c2c3c(=O)n(C)c(=O)n(C)c3cn2Cc2cccnc2)cc1`, the cell number change was found to be 6.32%.

With `CC(Sc1nc(NCc2ccccc2)nc(N2CCOCC2)n1)C(=O)Nc1ccccc1` (stereo unspecified), the cell number change was -46.6%. The AC50 under setting [2] was 11.6 µM [falling, partial curve]. Moreover, under setting [1], the AC50 was 29.1 µM [falling, single point].

On to `O=C1c2cccnc2C(Nc2cccc(F)c2)N1Cc1ccco1` (stereo unspecified), for which the cell number change is -24.1%. In addition, the AC50 under setting [1] is 0.206 µM [falling, full curve].

On to `O=c1c2c(ncn2C2CCCC2)n(Cc2ccccc2)c(=O)n1CCOc1ccc(Br)cc1`, for which the cell number change is -9.23%. Under setting [1], the AC50 is 2.91 µM [rising, partial curve, poor fit].

As to `CS(=O)(=O)c1ccc2nc(NC(=O)Cc3ccccc3)sc2c1`, the cell number change was -16.9%. Also, the AC50 under setting [1] was 23.1 µM [falling, single point].

For the compound `NS(=O)(=O)c1ccc(CCNC(=O)c2ccccc2F)cc1`, the cell number change was 1.75%.

`CC(=O)N(Cc1cc2c(C)cc(C)cc2[nH]c1=O)C1CCCCC1`: the cell number change is -17.8%. In addition, the AC50 under setting [1] is 0.116 µM [falling, single point].

For the compound `CCC(C)N(C(=O)COC(=O)c1[nH]c(C)c(C(C)=O)c1C)C1CCS(=O)(=O)C1` (stereo unspecified), the cell number change was 0.532%. Moreover, the half-maximal activity concentration (AC50) under setting [1] was 6.51 µM [rising, single point].

Regarding `COc1ccc(-c2cc(C)no2)cc1S(=O)(=O)N1CCN(c2ccccc2F)CC1`, the AC50 was 0.291 µM [rising, partial curve, poor fit] under setting [2] and 0.58 µM [rising, single point] under setting [1].

As for `CCOC(=O)N1CCN(c2ccc(C(C)=O)cc2F)CC1C` (stereo unspecified), the cell number change was -3.05%. For the same compound, the AC50 under setting [2] was 1.84 µM [rising, partial curve, poor fit]. Further, the AC50 under setting [1] is 6.51 µM [rising, single point].

Take `Cc1c(C(=O)Nc2ccc3c4c(cccc24)CC3)cccc1[N+](=O)[O-]`: the cell number change was 20.4%.

Consider `Cc1cccc(-n2ncc3c(NCCCO)ncnc32)c1`, for which the cell number change was found to be 0.132%. The half-maximal activity concentration (AC50) under setting [1] is 0.411 µM [rising, full curve, poor fit].

In the case of `CCCCOc1ccc(C(=O)NCC(=O)NCCCn2nc(C)cc2C)cc1`, the cell number change came out at 0.389%. Moreover, the AC50 under setting [1] is 0.0206 µM [falling, full curve, poor fit].

For `N#Cc1ccsc1NC(=O)C1CCN(C(=O)c2ccc(F)cc2)CC1`, the cell number change is -4.42%. The AC50 under setting [1] was 2.91 µM [rising, single point].

Take `Cc1nc2c(-c3ccc(F)cc3)c(C)nn2c(C)c1CCC(=O)NCc1ccco1`: the cell number change was -22.8%. Further, under setting [1], the AC50 is 0.461 µM [rising, full curve, poor fit].

In general, AC50 refers to the midpoint of the concentration-response curve, whichever way the signal moves.

These data come from PubChem BioAssay AID2685 (National Center for Advancing Translational Sciences (NCATS), 2010).
